PubChem BioAssay AID1259254 – NCATS – 2017

- Purpose: 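Genome-wide screen for genes that prevent DNA re-replication in cancer cells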 (primary screen)
- System: human HCT116 colorectal cancer cells
- Reagents: single siRNA against human genes
- Timing: 3 days
- Read-out: 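Imaged Hoechst DNA stain sorts each cell into a cycle phase by DNA amount; per plate, G2 fraction set to 0% for non-targeting and 100% for GMNN siRNA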
- Direction: G2 robust z-score and G2 cells, % of GMNN control: higher = more G2 cells, more excess DNA replication; raw share of cells in G2: higher = larger share of cells with G2 DNA content
- Active means: 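Active siRNAs have a G2 robust z of 5 or more median absolute deviations over the median, which in these data means about 38% or higher of GMNN control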
In all, the deposit lists about 59,000 reagents; this is a random part of them. About 1,550 of them (2.6%) count as active. 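G2 share is only a proxy for re-replication; each gene was hit by three separate siRNAs, and active genes were retested.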 Raw values are not corrected between plates. A number with no mark means an inactive call. The numbers tell different reagents against one gene apart. Not given: the amount of reagent.

no.	target gene	siRNA no.	G2 robust z-score	G2 cells, % of GMNN control	raw share of cells in G2 (%)
1	CHRNA6 (GeneID 8973)	1	2.55	20.9	12.9
2	CHRNA6 (GeneID 8973)	2	1.19	11.3	8.62
3	CHRNA6 (GeneID 8973)	3	0.0931	3.62	5.79
4	TAFA4 (GeneID 151647)	1	-0.655	-1.64	2.5
5	TAFA4 (GeneID 151647)	2	5.48 (active)	41.6	17.8
6	TAFA4 (GeneID 151647)	3	-0.488	-0.464	2.77
7	ZBED10P (GeneID 113763)	1	-0.586	-1.15	3.63
8	ZBED10P (GeneID 113763)	2	-0.631	-1.47	2.89
9	ZBED10P (GeneID 113763)	3	0.224	4.54	3.15
10	RXYLT1 (GeneID 10329)	1	-0.844	-2.97	3.99
11	RXYLT1 (GeneID 10329)	2	0.737	8.16	7.35
12	RXYLT1 (GeneID 10329)	3	0.532	6.71	5.85
13	SDR16C6P (GeneID 442388)	1	-0.613	-1.35	2.66
14	SDR16C6P (GeneID 442388)	2	1.71	15	9.41
15	SDR16C6P (GeneID 442388)	3	-0.754	-2.33	2.53
16	HMCES (GeneID 56941)	1	-0.774	-2.48	3.37
17	HMCES (GeneID 56941)	2	-0.641	-1.54	3.72
18	HMCES (GeneID 56941)	3	-0.749	-2.3	2.3
19	ORC2 (GeneID 4999)	1	-0.869	-3.15	3.47
20	ORC2 (GeneID 4999)	2	-0.664	-1.7	2.62
21	ORC2 (GeneID 4999)	3	6.32 (active)	47.5	23.1
22	LVRN (GeneID 206338)	1	0.347	5.41	7.88
23	LVRN (GeneID 206338)	2	2.11	17.8	10.3
24	LVRN (GeneID 206338)	3	-0.237	1.3	4.75
25	LINC01346 (GeneID 728716)	1	0.899	9.29	6.72
26	LINC01346 (GeneID 728716)	2	-0.368	0.379	4.07
27	LINC01346 (GeneID 728716)	3	0.721	8.04	5.91
28	PDE6C (GeneID 5146)	1	2.7	22	11.9
29	PDE6C (GeneID 5146)	2	-0.552	-0.918	4.03
30	PDE6C (GeneID 5146)	3	0.462	6.22	5.37
31	FANCA (GeneID 2175)	1	0.68	7.75	8.21
32	FANCA (GeneID 2175)	2	1.74	15.2	9.08
33	FANCA (GeneID 2175)	3	-0.247	1.23	5.68
34	LAGE3 (GeneID 8270)	1	-0.581	-1.12	4.63
35	LAGE3 (GeneID 8270)	2	3.04	24.3	13.5
36	LAGE3 (GeneID 8270)	3	1.78	15.5	8.83
37	RBFOX2 (GeneID 23543)	1	-0.225	1.39	6.93
38	RBFOX2 (GeneID 23543)	2	-0.0783	2.42	4.96
39	RBFOX2 (GeneID 23543)	3	-0.46	-0.267	3.77
40	SIX6 (GeneID 4990)	1	-1.34	-6.48	2.22
41	SIX6 (GeneID 4990)	2	1.14	11	8.56
42	SIX6 (GeneID 4990)	3	-0.438	-0.113	3.31
43	LOC645188 (GeneID 645188)	1	0.00342	2.99	4.78
44	LOC645188 (GeneID 645188)	2	3.09	24.7	12.1
45	LOC645188 (GeneID 645188)	3	1.26	11.8	6.6
46	CYP4B1 (GeneID 1580)	1	0.0234	3.13	6.14
47	CYP4B1 (GeneID 1580)	2	0.478	6.33	6.28
48	CYP4B1 (GeneID 1580)	3	2.37	19.7	12
49	CLEC10A (GeneID 10462)	1	1.75	15.3	12.2
50	CLEC10A (GeneID 10462)	2	0.38	5.64	6.3
51	CLEC10A (GeneID 10462)	3	0.0875	3.58	4.71
52	DYNC2LI1 (GeneID 51626)	1	-0.968	-3.85	2.23
53	DYNC2LI1 (GeneID 51626)	2	-0.213	1.47	4.89
54	DYNC2LI1 (GeneID 51626)	3	0.693	7.84	5.78
55	PABIR1 (GeneID 116224)	1	-0.0886	2.34	5.03
56	PABIR1 (GeneID 116224)	2	1.41	12.9	7.18
57	PABIR1 (GeneID 116224)	3	-0.614	-1.35	1.42
58	TPST2 (GeneID 8459)	1	0.95	9.65	8.65
59	TPST2 (GeneID 8459)	2	0.173	4.18	6.44
60	TPST2 (GeneID 8459)	3	-1.64	-8.54	1.65
61	KIR2DL4 (GeneID 3805)	1	-0.438	-0.115	5
62	KIR2DL4 (GeneID 3805)	2	-1.42	-6.99	3.02
63	KIR2DL4 (GeneID 3805)	3	4.36	33.6	16.5
64	CHRNA1 (GeneID 1134)	1	4.46	34.4	17.8
65	CHRNA1 (GeneID 1134)	2	-0.39	0.222	4.86
66	CHRNA1 (GeneID 1134)	3	0.288	4.99	6.32
67	PMP22 (GeneID 5376)	1	1.25	11.7	9.96
68	PMP22 (GeneID 5376)	2	-1.22	-5.62	2
69	PMP22 (GeneID 5376)	3	0.226	4.55	5

As entered above.
Under “raw share of cells in G2 (%)”, PMP22 (GeneID 5376) #2 has 2
Entry for CHRNA1 (GeneID 1134) #3 in “raw share of cells in G2 (%)”: 6.32
For “raw share of cells in G2 (%)”, CLEC10A (GeneID 10462) #2 reads 6.3
Result of CHRNA6 (GeneID 8973) #3 in “raw share of cells in G2 (%)”: 5.79
